± gives the standard deviation of the averaged measurements. The list shows a part of the results.
Compound: Nc1nc2c(ncn2[C@@H]2O[C@H](COP(=O)(O)OP(=O)(O)OP(=O)(O)O)[C@@H](O)[C@H]2O)c(=O)[nH]1 [guanosine triphosphate]
Assay: NP40-soluble protein abundance relative to vehicle (solubility fold change) (ratio); higher = more soluble protein in presence of GTP
Procedure, shortened: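 In three independent experiments, Jurkat crude lysate made by Dounce homogenisation was treated for 10 min at room temperature and then 3 min at 37 °C with eight concentrations ranging from 0.1 to 10 mM. It was then solubilised with 0.8% NP40 plus benzonase for 60 min at 4 °C and ultracentrifuged. The supernatant was TMT-labelled for LC-MS/MS, and each value is the fold change against the detergent-processed vehicle for the same replicate, using vsn-normalised intensities.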

Chains of the proteins cited; added tags and fusions are not shown. Lines headed by an entry give the natural chain unless they say otherwise; changes in a name come on top.
UniProt Q9Y3B2, whole entry: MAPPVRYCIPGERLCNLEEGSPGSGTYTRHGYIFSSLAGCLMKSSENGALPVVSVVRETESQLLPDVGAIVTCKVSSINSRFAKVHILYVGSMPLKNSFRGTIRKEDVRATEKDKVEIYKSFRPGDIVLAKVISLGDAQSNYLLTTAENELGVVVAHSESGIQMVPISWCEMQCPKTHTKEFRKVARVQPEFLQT
UniProt Q14141: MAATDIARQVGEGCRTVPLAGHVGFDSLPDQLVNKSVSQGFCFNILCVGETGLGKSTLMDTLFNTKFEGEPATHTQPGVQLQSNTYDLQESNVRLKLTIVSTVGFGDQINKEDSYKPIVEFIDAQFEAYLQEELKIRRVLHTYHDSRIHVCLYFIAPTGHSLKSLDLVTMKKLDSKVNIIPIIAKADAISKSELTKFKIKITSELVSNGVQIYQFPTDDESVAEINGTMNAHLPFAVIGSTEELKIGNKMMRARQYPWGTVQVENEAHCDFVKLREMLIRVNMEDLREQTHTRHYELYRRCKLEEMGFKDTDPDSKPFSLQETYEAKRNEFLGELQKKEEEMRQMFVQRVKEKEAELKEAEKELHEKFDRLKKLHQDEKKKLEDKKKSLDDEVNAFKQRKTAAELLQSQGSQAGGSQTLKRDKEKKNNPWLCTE
UniProt Q70CQ3: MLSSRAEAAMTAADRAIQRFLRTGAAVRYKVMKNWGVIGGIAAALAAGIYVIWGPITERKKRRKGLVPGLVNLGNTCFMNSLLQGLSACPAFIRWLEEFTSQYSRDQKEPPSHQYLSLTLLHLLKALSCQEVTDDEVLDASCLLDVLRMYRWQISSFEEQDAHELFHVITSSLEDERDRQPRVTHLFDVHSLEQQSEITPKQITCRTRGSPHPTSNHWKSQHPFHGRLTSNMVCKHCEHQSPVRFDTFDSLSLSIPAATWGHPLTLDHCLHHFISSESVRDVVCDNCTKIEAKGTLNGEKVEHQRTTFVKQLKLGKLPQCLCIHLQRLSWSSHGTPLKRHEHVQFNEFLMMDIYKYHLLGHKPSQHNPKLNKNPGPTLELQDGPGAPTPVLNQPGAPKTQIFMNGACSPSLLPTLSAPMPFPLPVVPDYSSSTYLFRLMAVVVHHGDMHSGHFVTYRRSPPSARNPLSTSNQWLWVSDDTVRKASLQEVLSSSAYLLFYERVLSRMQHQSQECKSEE
UniProt O14730: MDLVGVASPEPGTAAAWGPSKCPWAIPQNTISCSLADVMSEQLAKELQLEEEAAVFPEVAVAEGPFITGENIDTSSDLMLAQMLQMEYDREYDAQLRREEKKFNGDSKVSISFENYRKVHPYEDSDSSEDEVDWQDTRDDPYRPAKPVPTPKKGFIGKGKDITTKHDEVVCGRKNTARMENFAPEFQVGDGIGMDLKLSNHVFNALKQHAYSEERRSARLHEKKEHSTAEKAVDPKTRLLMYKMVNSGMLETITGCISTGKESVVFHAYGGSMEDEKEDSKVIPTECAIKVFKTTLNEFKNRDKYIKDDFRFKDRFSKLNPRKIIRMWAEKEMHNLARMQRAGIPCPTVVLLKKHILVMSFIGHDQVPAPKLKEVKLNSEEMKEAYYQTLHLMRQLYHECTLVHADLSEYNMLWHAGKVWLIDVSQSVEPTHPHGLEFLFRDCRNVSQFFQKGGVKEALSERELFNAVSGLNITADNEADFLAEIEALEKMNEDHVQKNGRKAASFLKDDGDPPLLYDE
UniProt Q9UDY4: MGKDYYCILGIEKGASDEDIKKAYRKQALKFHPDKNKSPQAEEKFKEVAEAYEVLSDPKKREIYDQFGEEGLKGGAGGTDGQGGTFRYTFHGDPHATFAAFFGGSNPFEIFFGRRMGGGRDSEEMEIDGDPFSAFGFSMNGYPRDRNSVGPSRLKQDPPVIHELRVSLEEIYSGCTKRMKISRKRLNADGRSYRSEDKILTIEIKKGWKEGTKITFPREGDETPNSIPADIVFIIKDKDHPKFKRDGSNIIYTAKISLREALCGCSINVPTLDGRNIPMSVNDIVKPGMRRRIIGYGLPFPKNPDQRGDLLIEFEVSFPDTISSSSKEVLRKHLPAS
UniProt Q86WB0: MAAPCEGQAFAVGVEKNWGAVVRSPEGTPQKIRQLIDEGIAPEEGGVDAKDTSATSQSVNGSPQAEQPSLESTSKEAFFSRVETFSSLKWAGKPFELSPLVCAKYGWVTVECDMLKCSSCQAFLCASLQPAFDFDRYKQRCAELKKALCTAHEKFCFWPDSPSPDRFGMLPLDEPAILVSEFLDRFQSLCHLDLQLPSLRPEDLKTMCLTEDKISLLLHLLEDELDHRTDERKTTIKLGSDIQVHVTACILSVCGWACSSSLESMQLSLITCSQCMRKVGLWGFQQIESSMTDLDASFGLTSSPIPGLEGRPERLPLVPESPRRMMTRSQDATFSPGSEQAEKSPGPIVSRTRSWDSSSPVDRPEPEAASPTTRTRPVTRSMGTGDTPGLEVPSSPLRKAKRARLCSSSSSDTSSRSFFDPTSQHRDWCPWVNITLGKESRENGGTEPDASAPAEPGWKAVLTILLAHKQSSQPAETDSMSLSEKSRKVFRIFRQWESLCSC
UniProt Q9P2W9: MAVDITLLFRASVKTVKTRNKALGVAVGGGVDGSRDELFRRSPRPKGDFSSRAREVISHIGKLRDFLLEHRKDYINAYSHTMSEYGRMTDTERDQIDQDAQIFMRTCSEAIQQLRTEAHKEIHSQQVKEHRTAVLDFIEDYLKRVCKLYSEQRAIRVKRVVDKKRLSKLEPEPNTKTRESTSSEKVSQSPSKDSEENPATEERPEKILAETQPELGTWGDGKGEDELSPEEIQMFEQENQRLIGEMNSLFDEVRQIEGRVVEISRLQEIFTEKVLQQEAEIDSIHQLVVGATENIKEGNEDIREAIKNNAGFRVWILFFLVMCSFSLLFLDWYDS
UniProt Q16773: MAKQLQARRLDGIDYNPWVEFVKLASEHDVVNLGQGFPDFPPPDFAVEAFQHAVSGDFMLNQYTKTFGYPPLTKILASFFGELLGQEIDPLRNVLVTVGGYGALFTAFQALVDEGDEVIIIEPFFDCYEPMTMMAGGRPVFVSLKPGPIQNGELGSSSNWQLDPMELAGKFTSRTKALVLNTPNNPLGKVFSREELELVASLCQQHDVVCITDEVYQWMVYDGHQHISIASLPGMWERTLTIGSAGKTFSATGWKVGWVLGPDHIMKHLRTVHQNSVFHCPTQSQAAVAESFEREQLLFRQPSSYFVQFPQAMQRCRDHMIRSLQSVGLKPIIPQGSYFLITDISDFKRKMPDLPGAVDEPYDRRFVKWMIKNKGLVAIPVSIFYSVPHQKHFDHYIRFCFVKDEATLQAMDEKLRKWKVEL
UniProt Q5W0Z9: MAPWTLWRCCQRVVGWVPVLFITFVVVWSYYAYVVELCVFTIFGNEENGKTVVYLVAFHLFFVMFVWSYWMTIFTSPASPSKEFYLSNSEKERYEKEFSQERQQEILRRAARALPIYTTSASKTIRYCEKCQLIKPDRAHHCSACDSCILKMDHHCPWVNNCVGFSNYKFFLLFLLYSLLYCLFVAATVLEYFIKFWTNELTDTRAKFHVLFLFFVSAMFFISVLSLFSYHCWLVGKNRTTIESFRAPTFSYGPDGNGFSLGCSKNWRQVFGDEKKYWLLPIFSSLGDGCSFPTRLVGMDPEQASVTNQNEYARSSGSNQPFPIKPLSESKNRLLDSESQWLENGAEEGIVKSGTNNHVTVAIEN
UniProt Q9NP97, whole entry: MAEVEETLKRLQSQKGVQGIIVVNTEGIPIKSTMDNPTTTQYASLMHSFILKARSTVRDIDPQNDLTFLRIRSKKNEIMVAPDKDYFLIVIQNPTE
UniProt Q9Y483: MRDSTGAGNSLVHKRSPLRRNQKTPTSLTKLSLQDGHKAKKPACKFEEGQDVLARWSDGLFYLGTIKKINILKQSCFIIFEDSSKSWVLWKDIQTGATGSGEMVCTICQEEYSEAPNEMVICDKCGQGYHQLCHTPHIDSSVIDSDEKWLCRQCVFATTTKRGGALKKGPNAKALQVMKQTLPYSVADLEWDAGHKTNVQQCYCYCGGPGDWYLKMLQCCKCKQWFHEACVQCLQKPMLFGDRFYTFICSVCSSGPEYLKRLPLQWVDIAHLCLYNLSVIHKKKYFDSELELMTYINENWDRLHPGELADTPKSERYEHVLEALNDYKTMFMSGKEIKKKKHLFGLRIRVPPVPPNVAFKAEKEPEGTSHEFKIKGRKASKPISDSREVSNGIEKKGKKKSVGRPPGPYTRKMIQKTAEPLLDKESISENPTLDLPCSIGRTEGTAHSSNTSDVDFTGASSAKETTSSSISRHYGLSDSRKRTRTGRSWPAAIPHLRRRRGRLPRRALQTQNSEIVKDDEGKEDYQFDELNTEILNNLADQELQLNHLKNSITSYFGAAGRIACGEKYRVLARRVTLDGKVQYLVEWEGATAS
UniProt Q8NA72: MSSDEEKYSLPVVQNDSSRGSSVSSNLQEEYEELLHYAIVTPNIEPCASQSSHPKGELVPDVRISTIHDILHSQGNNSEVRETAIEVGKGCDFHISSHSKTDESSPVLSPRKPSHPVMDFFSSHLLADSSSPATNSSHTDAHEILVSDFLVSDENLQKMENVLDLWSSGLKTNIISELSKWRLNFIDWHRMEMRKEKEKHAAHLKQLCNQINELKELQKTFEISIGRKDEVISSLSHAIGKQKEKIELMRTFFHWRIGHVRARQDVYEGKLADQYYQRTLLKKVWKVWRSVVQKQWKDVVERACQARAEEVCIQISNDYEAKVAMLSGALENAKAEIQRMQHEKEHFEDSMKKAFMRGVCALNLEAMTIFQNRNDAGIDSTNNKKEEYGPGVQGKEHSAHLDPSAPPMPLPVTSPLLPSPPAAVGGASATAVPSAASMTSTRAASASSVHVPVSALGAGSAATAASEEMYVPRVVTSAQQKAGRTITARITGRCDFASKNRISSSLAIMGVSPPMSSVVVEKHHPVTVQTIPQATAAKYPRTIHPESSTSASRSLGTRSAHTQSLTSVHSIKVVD
UniProt P06454: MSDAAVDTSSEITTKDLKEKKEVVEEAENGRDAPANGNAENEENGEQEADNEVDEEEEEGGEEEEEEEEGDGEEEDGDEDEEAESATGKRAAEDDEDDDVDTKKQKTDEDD
UniProt Q96AT9: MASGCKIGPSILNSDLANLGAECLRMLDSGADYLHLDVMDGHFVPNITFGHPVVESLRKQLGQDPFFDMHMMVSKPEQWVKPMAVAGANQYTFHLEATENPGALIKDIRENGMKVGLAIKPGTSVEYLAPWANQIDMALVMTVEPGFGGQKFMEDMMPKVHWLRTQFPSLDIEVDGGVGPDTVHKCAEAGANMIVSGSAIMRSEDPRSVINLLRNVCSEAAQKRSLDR
UniProt P08174: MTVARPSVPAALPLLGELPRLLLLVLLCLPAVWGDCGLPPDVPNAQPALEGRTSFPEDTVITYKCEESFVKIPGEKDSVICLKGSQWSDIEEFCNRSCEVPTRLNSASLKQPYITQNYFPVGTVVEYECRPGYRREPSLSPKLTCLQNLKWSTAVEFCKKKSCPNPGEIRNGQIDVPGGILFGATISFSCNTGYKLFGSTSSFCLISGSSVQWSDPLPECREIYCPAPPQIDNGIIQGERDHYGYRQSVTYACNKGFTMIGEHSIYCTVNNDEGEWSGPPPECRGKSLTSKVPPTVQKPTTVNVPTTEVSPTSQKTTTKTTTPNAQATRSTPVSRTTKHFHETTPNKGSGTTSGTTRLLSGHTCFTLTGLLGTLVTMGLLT
UniProt Q9Y530: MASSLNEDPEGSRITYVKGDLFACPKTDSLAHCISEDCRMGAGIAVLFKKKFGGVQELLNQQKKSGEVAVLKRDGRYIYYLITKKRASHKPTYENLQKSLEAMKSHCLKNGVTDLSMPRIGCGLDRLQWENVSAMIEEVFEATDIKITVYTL
UniProt Q9NQI0, whole entry: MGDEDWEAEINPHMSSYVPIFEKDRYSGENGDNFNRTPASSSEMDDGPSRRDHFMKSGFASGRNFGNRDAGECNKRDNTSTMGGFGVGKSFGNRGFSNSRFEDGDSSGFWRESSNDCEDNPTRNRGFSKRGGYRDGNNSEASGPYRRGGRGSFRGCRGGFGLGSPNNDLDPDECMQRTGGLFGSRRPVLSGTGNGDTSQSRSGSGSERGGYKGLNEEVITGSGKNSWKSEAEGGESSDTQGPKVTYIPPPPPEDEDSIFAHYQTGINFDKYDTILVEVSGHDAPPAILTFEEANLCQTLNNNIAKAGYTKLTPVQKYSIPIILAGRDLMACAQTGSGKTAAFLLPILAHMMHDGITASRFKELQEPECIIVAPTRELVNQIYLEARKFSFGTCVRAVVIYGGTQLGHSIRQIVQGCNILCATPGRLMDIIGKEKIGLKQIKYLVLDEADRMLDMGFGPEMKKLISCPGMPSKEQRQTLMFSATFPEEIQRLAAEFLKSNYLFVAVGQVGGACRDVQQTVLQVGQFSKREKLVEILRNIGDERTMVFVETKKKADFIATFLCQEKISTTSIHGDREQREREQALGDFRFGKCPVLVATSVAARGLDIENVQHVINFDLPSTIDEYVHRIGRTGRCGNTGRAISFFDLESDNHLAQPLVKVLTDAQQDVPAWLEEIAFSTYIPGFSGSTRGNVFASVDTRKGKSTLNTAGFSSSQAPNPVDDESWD

Target | NP40-soluble protein abundance (concentration: 0.1mM) | NP40-soluble protein abundance (concentration: 0.5mM) | NP40-soluble protein abundance (concentration: 1mM) | NP40-soluble protein abundance (concentration: 2mM) | NP40-soluble protein abundance (concentration: 4mM) | NP40-soluble protein abundance (concentration: 6mM) | NP40-soluble protein abundance (concentration: 8mM) | NP40-soluble protein abundance (concentration: 10mM)
B1AMU7 and related entries (UniProt Q9Y3B2) | 1.02 ± 0.037 | 1.07 ± 0.04 | 1.01 ± 0.056 | 1.1 ± 0.11 | 1.18 ± 0.11 | 1.22 ± 0.12 | 1.17 ± 0.062 | 1.18 ± 0.068
B1AMS2 and related entries (UniProt Q14141) | 1.03 ± 0.053 | 0.998 ± 0.011 | 0.968 ± 0.062 | 0.9155 ± 0.0055 | 0.941 ± 0.054 | 0.921 ± 0.016 | 0.941 ± 0.1 | 0.857 ± 0.013
B3KUS5 and related entries (UniProt Q70CQ3) | 0.983 ± 0.23 | 0.936 ± 0.045 | 0.931 ± 0.045 | 1.03 ± 0.033 | 1.04 ± 0.19 | 0.997 ± 0.075 | 0.956 ± 0.013 | 0.982 ± 0.075
E5RG17 and related entries (UniProt Q6P1N9) | 1.03 ± 0.016 | 0.996 ± 0.014 | 0.939 ± 0.05 | 0.917 ± 0.066 | 0.919 ± 0.066 | 0.9 ± 0.061 | 0.907 ± 0.052 | 0.854 ± 0.078
B4E1Q4 and related entries (UniProt O14730) | 0.965 ± 0.1 | 1.03 ± 0.063 | 0.949 ± 0.081 | 0.921 ± 0.073 | 0.806 ± 0.037 | 0.77 ± 0.041 | 0.747 ± 0.08 | 0.704 ± 0.041
C9J1E1 and related entries (UniProt P53004) | 0.96 ± 0.04 | 1 ± 0.024 | 0.86 ± 0.029 | 0.856 ± 0.045 | 0.842 ± 0.031 | 0.842 ± 0.03 | 0.823 ± 0.057 | 0.796 ± 0.074
C9JUL4 and related entries (UniProt Q9UDY4) | 1.02 ± 0.089 | 1.02 ± 0.056 | 0.867 ± 0.042 | 0.946 ± 0.097 | 0.94 ± 0.087 | 0.948 ± 0.055 | 0.9 ± 0.032 | 0.893 ± 0.051
C9JFV4 and related entries (UniProt Q8IZL8) | 1.03 ± 0.081 | 1.02 ± 0.023 | 1.09 ± 0.021 | 1.22 ± 0.098 | 1.24 ± 0.13 | 1.19 ± 0.1 | 1.28 ± 0.18 | 1.35 ± 0.15
C9JLU1 and related entries (UniProt P52434) | 1.05 ± 0.091 | 1.04 ± 0.09 | 0.984 ± 0.081 | 1 ± 0.13 | 0.985 ± 0.096 | 1.03 ± 0.089 | 0.957 ± 0.08 | 0.931 ± 0.041
C9J0I9 and related entries (UniProt Q86WB0) | 1.02 ± 0.02 | 0.984 ± 0.025 | 0.996 ± 0.013 | 0.961 ± 0.036 | 0.962 ± 0.04 | 0.926 ± 0.033 | 0.972 ± 0.015 | 0.926 ± 0.044
D6RF48 and related entries (UniProt Q9P2W9) | 1.05 ± 0.1 | 1.02 ± 0.11 | 1.1 ± 0.11 | 1.07 ± 0.14 | 1.1 ± 0.11 | 1.01 ± 0.074 | 1.07 ± 0.11 | 1.04 ± 0.12
C9J6N9 and related entries (UniProt Q92890) | 1.04 ± 0.041 | 1.03 ± 0.035 | 0.98 ± 0.01 | 0.937 ± 0.03 | 0.947 ± 0.022 | 0.934 ± 0.034 | 0.948 ± 0.017 | 0.896 ± 0.036
B4DP61 and related entries (UniProt Q16637+E7EQZ4+B4DP61) | 1.06 ± 0.032 | 1.08 ± 0.076 | 1.18 ± 0.26 | 1.22 ± 0.19 | 1.24 ± 0.21 | 1.25 ± 0.23 | 1.28 ± 0.24 | 1.21 ± 0.29
C5orf51 (UniProt A6NDU8) | 0.989 ± 0.035 | 0.968 ± 0.074 | 0.98 ± 0.11 | 0.972 ± 0.052 | 0.989 ± 0.059 | 0.887 ± 0.058 | 0.9228 ± 0.0087 | 0.984 ± 0.033
B7Z4W5 and related entries (UniProt Q5T278+Q16773+B7Z4W5) | 1.01 ± 0.093 | 1.02 ± 0.16 | 0.875 ± 0.038 | 0.872 ± 0.099 | 0.912 ± 0.017 | 0.833 ± 0.063 | 0.777 ± 0.045 | 0.799 ± 0.052
B4DRN8 and related entries (UniProt Q5W0Z9) | 1.11 ± 0.036 | 1.05 ± 0.11 | 1.29 ± 0.056 | 1.21 ± 0.084 | 1.17 ± 0.1 | 1.19 ± 0.085 | 1.28 ± 0.12 | 1.29 ± 0.11
B1AKR6 and related entries (UniProt Q9NP97) | 0.951 ± 0.11 | 0.89 ± 0.097 | 1.02 ± 0.13 | 1.02 ± 0.12 | 1.1 ± 0.15 | 1.01 ± 0.1 | 1.01 ± 0.089 | 1.09 ± 0.13
B4DZG1 and related entries (UniProt Q9Y483) | 1.11 ± 0.061 | 1.09 ± 0.032 | 1.16 ± 0.044 | 1.26 ± 0.074 | 1.4 ± 0.068 | 1.45 ± 0.095 | 1.64 ± 0.2 | 1.78 ± 0.18
D6RDG4 and related entries (UniProt Q8NA72) | 0.974 ± 0.054 | 0.96 ± 0.046 | 1.045 ± 0.007 | 0.9759 ± 0.00021 | 0.95 ± 0.048 | 1.014 ± 0.0089 | 0.981 ± 0.017 | 0.9663 ± 0.0092
B4DY09 and related entries (UniProt Q12905) | 0.96 ± 0.045 | 1.07 ± 0.066 | 1.08 ± 0.067 | 1.16 ± 0.1 | 1.18 ± 0.1 | 1.29 ± 0.12 | 1.25 ± 0.13 | 1.29 ± 0.13
B8ZZQ6 and related entries (UniProt P06454) | 1.069 ± 0.0068 | 0.988 ± 0.015 | 0.987 ± 0.036 | 0.946 ± 0.07 | 0.948 ± 0.063 | 0.988 ± 0.022 | 1.12 ± 0.1 | 1.05 ± 0.085
C9J6A7 and related entries (UniProt Q96AT9) | 0.879 ± 0.071 | 0.921 ± 0.18 | 0.903 ± 0.07 | 0.883 ± 0.19 | 0.82 ± 0.11 | 0.867 ± 0.15 | 0.817 ± 0.09 | 0.901 ± 0.16
B1AP13 and related entries (UniProt P08174) | 0.882 ± 0.042 | 0.894 ± 0.029 | 0.859 ± 0.11 | 0.84 ± 0.097 | 0.792 ± 0.082 | 0.837 ± 0.028 | 0.828 ± 0.087 | 0.847 ± 0.038
C9JNE2 and related entries (UniProt Q9Y530) | 0.9849 ± 0.0069 | 0.9232 ± 0.0085 | 0.95 ± 0.058 | 0.943 ± 0.056 | 0.969 ± 0.084 | 0.921 ± 0.08 | 0.902 ± 0.076 | 0.913 ± 0.083
C9JQS9 and related entries (UniProt P05166) | 1.07 ± 0.045 | 1.08 ± 0.044 | 1.02 ± 0.032 | 1.07 ± 0.073 | 1.08 ± 0.06 | 1.04 ± 0.088 | 1.04 ± 0.037 | 1.03 ± 0.066
D6RCM4 and related entries (UniProt Q9NQI0) | 1.07 ± 0.12 | 1.09 ± 0.16 | 0.998 ± 0.2 | 1.04 ± 0.27 | 1.01 ± 0.22 | 1.05 ± 0.28 | 0.939 ± 0.16 | 0.872 ± 0.16

As a working copy, some entries already given:
Target | NP40-soluble protein abundance (concentration: 0.1mM) | NP40-soluble protein abundance (concentration: 0.5mM) | NP40-soluble protein abundance (concentration: 1mM) | NP40-soluble protein abundance (concentration: 2mM) | NP40-soluble protein abundance (concentration: 4mM) | NP40-soluble protein abundance (concentration: 6mM) | NP40-soluble protein abundance (concentration: 8mM) | NP40-soluble protein abundance (concentration: 10mM)
B8ZZQ6 and related entries (UniProt P06454) | 1.069 ± 0.0068 | 0.988 ± 0.015 | 0.987 ± 0.036 | 0.946 ± 0.07 | 0.948 ± 0.063 | 0.988 ± 0.022 | 1.12 ± 0.1 | 1.05 ± 0.085
C9J6A7 and related entries (UniProt Q96AT9) | 0.879 ± 0.071 | 0.921 ± 0.18 | 0.903 ± 0.07 | 0.883 ± 0.19 | 0.82 ± 0.11 | 0.867 ± 0.15 | 0.817 ± 0.09 | 0.901 ± 0.16
